Laboratory results: PMC10916869
Results are given in words; binding and its absence hold for the method and conditions named. In cells and extracts the contact can be indirect. Some binding calls cover weakened binding; strength is not graded here.

Sequences of proteins named here, by UniProt entry; tags and fusion partners are left off. A change or cut given only in a name is not applied to a line headed by its entry. A line that says so, or that is headed by a name, gives the form on record, which may keep a tag or linker. Residues count along the entry.
ATZ-Venus (alpha-1-antitrypsin Z mutant with C-terminal Venus) (P01009, form named): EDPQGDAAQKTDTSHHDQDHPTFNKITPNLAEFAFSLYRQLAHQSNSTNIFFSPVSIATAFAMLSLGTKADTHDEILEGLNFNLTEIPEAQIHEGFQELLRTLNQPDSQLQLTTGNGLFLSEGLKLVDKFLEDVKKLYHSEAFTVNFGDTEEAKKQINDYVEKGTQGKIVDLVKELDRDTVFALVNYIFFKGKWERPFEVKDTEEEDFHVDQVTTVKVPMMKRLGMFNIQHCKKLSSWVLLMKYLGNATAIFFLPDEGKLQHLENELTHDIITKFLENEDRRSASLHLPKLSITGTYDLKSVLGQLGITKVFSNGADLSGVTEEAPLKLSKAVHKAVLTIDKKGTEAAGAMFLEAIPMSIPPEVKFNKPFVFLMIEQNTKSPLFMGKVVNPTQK
UniProt Q15363, residues 21-201: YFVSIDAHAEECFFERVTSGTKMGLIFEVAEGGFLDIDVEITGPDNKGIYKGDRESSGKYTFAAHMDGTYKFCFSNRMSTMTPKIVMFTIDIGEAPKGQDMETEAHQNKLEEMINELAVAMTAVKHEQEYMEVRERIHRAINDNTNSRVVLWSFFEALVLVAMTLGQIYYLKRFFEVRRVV

Key:
[1] = target: ATZ-Venus (alpha-1-antitrypsin Z mutant with C-terminal Venus) (UniProt P01009); experiment: co-IP
[2] = target: ATZ-Venus (alpha-1-antitrypsin Z mutant with C-terminal Venus) (UniProt P01009); experiment: co-IP; GFP-tag (Venus, Cerulean, YFP) pull-down with the μMACS GFP Isolation Kit from N2a cells 48 h after transient transfection; lysis, incubation and washes in 1% CHAPS, 50 mM HEPES pH 7.4, 100 mM NaCl, 2 mM CaCl2 at 4°C; eluates immunoblotted; untransfected parental cells as control; Figure 3C is a single experiment (n = 1)
CER-p24 = CER-p24 (UniProt Q15363); experiment: as above
[3] = target: T1, CER-TMED9 (SS(lactase)-CER-TMED9) (human) (UniProt Q9BVK6); experiment: as above
T1 sequence: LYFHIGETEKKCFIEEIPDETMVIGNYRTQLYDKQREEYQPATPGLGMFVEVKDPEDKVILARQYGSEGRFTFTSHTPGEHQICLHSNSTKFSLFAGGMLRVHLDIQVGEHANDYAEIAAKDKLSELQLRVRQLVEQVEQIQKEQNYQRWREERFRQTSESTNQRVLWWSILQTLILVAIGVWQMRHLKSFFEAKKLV

[4] = target: T2, CER-TMP21 (SS(TMP21)-CER-TMP21) (rat) (UniProt Q63584); experiment: as above
T2 sequence: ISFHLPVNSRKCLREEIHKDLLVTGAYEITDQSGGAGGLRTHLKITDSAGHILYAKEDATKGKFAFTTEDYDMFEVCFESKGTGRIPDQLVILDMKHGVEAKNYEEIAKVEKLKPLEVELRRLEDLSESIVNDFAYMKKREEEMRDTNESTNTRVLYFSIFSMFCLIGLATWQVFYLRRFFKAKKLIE

B1: TMP21 (protein, UniProt Q9D1D4 32-219)
chain: T2 sequence
Q: B1 was tested. Which binding [1] did it give?
A: The binding was “binds”.

B2: FAM134B (protein, UniProt Q8VE91 1-480)
chain: MASPAPEEHATQGCPATEEQPPRPGVPGEEAGPEGAGPQVEEAAGRVAAALTWLLGEPVLWLGWRADELLSWKRPLRSLLTFLGANLLFWFLALTPWRVYHLISVMILGRVIMQIIKEMVLSRTRGAQLWRSLTESWEVINSKPDERARLSQCIAESWMNFSMFLQEMSLFKQQSPGKFCLLVCSVCTFFTILGSYIPGVILSYLLLLFAFLCPLFKCNDIGQKIYSKVKSILLKLDFGIGEYINQKKRERSEADKEKSHKDDSELDFSALCPKISLTVAAKELSVSDTDVSEVSWTDNGTFNLSEGYTPQTDTSDDLDRPSEEVFSRDLSDFPSLENGTGTNDEDELSLGLPTELKRKKQQLDSAHRPSKERQSAAGLSLPLKSDQALHLMSNLAGDVITAAMTAAIKDQLEGARQALTQVAPTAGEDTDTEEGDDFELLDQAELDQIESELGLTQDQGAEAQQSKKSSGFLSNLLGGH
Q: For B2, which binding [2] is on record?
A: Its binding is “binds”.

Q: And the binding (CER-p24)?
A: The binding was “binds”.

Q: And the binding [3]?
A: The binding was “binds”.

Q: What about the binding [4] of the same binder?
A: Its binding is “binds”.

B3: SEC24C (protein, UniProt G3X972 1-1096)
chain: MNVNQSAPPVPPYGQNQPIYPGYHQSSYGGQPGPAAPATPYGAYNGPVPGYQQAPPQGVPRAPPSSGAPPASAAQVPCGQTTYGQFGQGDIQNGPSSTAQMQRVPGSQQFGPPLAPVVSQPAVLQPYGPPPTSTQVTAQLAGMQISGAVAQAPPPSGLGYGPPTSLASASGNFPNSGPYGSYPQSQAPPLSQAQGHPGVQPPLRSAPPLASSFTSPASGGPQMPSMTGLLPPGQGFGSLPVNQANHVSSPPAPALPPGTQMTGPPVPPPPPMHSPQQPGYQLQQNGSFGPARGPQPNYESPYPGAPTFGSQPGPPQPLPPKRLDPDAIPSPIQVIEDDRNNRGSEPFVTGVRGQVPPLVTTNFLVKDQGNASPRYIRCTSYNIPCTSDMAKQAQVPLAAVIKPLARLPPEEASPYVVDHGESGPLRCNRCKAYMCPLMTFIEGGRRFQCSFCSCVNDVPPQYFQHLDHTGKRVDAYDRPELSLGSYEFLATVDYCKNNKFPSPPAFIFMIDVSYNAIRTGLVRLLCEELKSLLDYLPREGGAEESAIRVGFVTYNKVLHFYNVKSSLAQPQMMVVSDVADMFVPLLDGFLVNVSESRAVITSLLDQIPEMFADTRETETVFAPVIQAGMEALKAAECAGKLFLFHTSLPIAEAPGKLKNRDDRKLINTDKEKTLFQPQTGTYQTLAKECVAQGCCVDLFLFPNQYVDVATLSVVPQLTGGSVYKYACFQVENDQERFLSDLRRDVQKVVGFDAVMRVRTSTGIRAVDFFGAFYMSNTTDVELAGLDGDKTVTVEFKHDDRLNEENGALLQCALLYTSCAGQRRLRIHNLALNCCTQLADLYRNCETDTLINYMAKFAYRAVLNSPVKTVRDTLITQCAQILACYRKNCASPSSAGQLILPECMKLLPVYLNCVLKSDVLQPGAEVTTDDRAYVRQLVSSMDVAETNVFFYPRLLPLTKSPLDSTAEPPAVRASEERLSSGDIYLLENGLNLFVWVGASVQQGVVQSLFNVSSFSQITSGLSVLPVLDNPLSKKVRGLIDSLRAQRMRYMKLIVVKQEDKLEMLFKHFLVEDKSLSGGASYVDFLCHMHKEIRQLLS
Q: Which results are given for B3?
A: binding (CER-p24): binds; binding [3]: binds; binding [4]: binds

B4: TMED9 (protein, UniProt Q99KF1 38-235)
chain: T1 sequence
Q: For B4, which binding [2] is on record?
A: Its binding is “binds”.

B5: calnexin (protein, UniProt P35564 21-591)
chain: HDGHDDDAIDIEDDLDDVIEEVEDSKSKSDASTPPSPKVTYKAPVPTGEVYFADSFDRGSLSGWILSKAKKDDTDDEIAKYDGKWEVDEMKETKLPGDKGLVLMSRAKHHAISAKLNKPFLFDTKPLIVQYEVNFQNGIECGGAYVKLLSKTAELSLDQFHDKTPYTIMFGPDKCGEDYKLHFIFRHKNPKTGVYEEKHAKRPDADLKTYFTDKKTHLYTLILNPDNSFEILVDQSVVNSGNLLNDMTPPVNPSREIEDPEDRKPEDWDERPKIADPDAVKPDDWDEDAPSKIPDEEATKPEGWLDDEPEYIPDPDAEKPEDWDEDMDGEWEAPQIANPKCESAPGCGVWQRPMIDNPNYKGKWKPPMIDNPNYQGIWKPRKIPNPDFFEDLEPFKMTPFSAIGLELWSMTSDIFFDNFIISGDRRVVDDWANDGWGLKKAADGAAEPGVVLQMLEAAEERPWLWVVYILTVALPVFLVILFCCSGKKQSNAMEYKKTDAPQPDVKDEEGKEEEKNKRDEEEEEEKLEEKQKSDAEEDGVTGSQDEEDSKPKAEEDEILNRSPRNRKPRRE
Q: For B5, which binding [2] is on record?
A: Its binding is “binds”.
